According to the supplement of paper PMC7661543:
The effect of the compound repeats well; differences between the knockouts mostly do not.

Tested on: MDA-MB-231
Assay: relative cell number vs DMSO control (72 h) (% of DMSO); higher = less growth inhibition (more cells)
Experimental: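 QMAP-Seq: a pool of 5 breast cancer cell lines (ZR-75-1, SKBR3, HCC-38, MDA-MB-231, BT-20), each carrying 12 doxycycline-inducible Cas9 sgRNA perturbations (11 knockouts plus non-targeting sgNT), was treated with compounds for 72 h at four 10-fold doses (10 nM-10 uM or 1 nM-1 uM range). Barcodes were amplified and sequenced, and cell number was interpolated from 293T spike-in standard curves. The result is expressed as % of the median of DMSO wells. Two biological replicates.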

C[C@@H](Oc1cc(-c2cnn(C3CCNCC3)c2)cnc1N)c1c(Cl)ccc(F)c1Cl [Crizotinib]
Details	relative cell number
sgRNA knockout: sgATF3, 10 nM	74.87
sgRNA knockout: sgATF3, 100 nM	98.2
sgRNA knockout: sgATF3, 1000 nM	56.9
sgRNA knockout: sgATF3, 10000 nM	6.4
sgRNA knockout: sgATF4, 10 nM	68.2
sgRNA knockout: sgATF4, 100 nM	94
sgRNA knockout: sgATF4, 1000 nM	52.9
sgRNA knockout: sgATF4, 10000 nM	9.62
sgRNA knockout: sgATF6, 10 nM	123
sgRNA knockout: sgATF6, 100 nM	84.8
sgRNA knockout: sgATF6, 1000 nM	52.1
sgRNA knockout: sgATF6, 10000 nM	10.3
sgRNA knockout: sgATG7, 10 nM	104
sgRNA knockout: sgATG7, 100 nM	83.9
sgRNA knockout: sgATG7, 1000 nM	45
sgRNA knockout: sgATG7, 10000 nM	10.1
sgRNA knockout: sgERN1, 10 nM	96.8
sgRNA knockout: sgERN1, 100 nM	71.1
sgRNA knockout: sgERN1, 1000 nM	45.4
sgRNA knockout: sgERN1, 10000 nM	12.7
sgRNA knockout: sgHSF1, 10 nM	88.4
sgRNA knockout: sgHSF1, 100 nM	97
sgRNA knockout: sgHSF1, 1000 nM	53.1
sgRNA knockout: sgHSF1, 10000 nM	8.28
sgRNA knockout: sgHSF2, 10 nM	81.3
sgRNA knockout: sgHSF2, 100 nM	90.3
sgRNA knockout: sgHSF2, 1000 nM	60.7
sgRNA knockout: sgHSF2, 10000 nM	12
sgRNA knockout: sgKEAP1, 10 nM	77.2
sgRNA knockout: sgKEAP1, 100 nM	70.4
sgRNA knockout: sgKEAP1, 1000 nM	62.9
sgRNA knockout: sgKEAP1, 10000 nM	10.2
sgRNA knockout: sgNFE2L2, 10 nM	90.79
sgRNA knockout: sgNFE2L2, 100 nM	93.4
sgRNA knockout: sgNFE2L2, 1000 nM	57.8
sgRNA knockout: sgNFE2L2, 10000 nM	9.84
sgRNA knockout: sgSLC35F2, 10 nM	78.6
sgRNA knockout: sgSLC35F2, 100 nM	62.5
sgRNA knockout: sgSLC35F2, 1000 nM	34.1
sgRNA knockout: sgSLC35F2, 10000 nM	11.2
sgRNA knockout: sgXBP1, 10 nM	91.9
sgRNA knockout: sgXBP1, 100 nM	89.6
sgRNA knockout: sgXBP1, 1000 nM	55.6
sgRNA knockout: sgXBP1, 10000 nM	7.84

CN(C)/N=N/c1[nH]cnc1C(N)=O [Dacarbazine]
Details	relative cell number
sgRNA knockout: sgATF3, 10 nM	130
sgRNA knockout: sgATF3, 100 nM	115
sgRNA knockout: sgATF3, 1000 nM	79.9
sgRNA knockout: sgATF3, 10000 nM	82.9
sgRNA knockout: sgATF4, 10 nM	90.8
sgRNA knockout: sgATF4, 100 nM	85.7
sgRNA knockout: sgATF4, 1000 nM	92.5
sgRNA knockout: sgATF4, 10000 nM	86.3
sgRNA knockout: sgATF6, 10 nM	102
sgRNA knockout: sgATF6, 100 nM	113
sgRNA knockout: sgATF6, 1000 nM	98.5
sgRNA knockout: sgATF6, 10000 nM	75.2
sgRNA knockout: sgATG7, 10 nM	107
sgRNA knockout: sgATG7, 100 nM	94.7
sgRNA knockout: sgATG7, 1000 nM	108
sgRNA knockout: sgATG7, 10000 nM	80.8
sgRNA knockout: sgERN1, 10 nM	96.1
sgRNA knockout: sgERN1, 100 nM	94.6
sgRNA knockout: sgERN1, 1000 nM	94.6
sgRNA knockout: sgERN1, 10000 nM	84.7
sgRNA knockout: sgHSF1, 10 nM	69.8
sgRNA knockout: sgHSF1, 100 nM	84.8
sgRNA knockout: sgHSF1, 1000 nM	75.6
sgRNA knockout: sgHSF1, 10000 nM	74.9
sgRNA knockout: sgHSF2, 10 nM	94.5
sgRNA knockout: sgHSF2, 100 nM	96.1
sgRNA knockout: sgHSF2, 1000 nM	92.7
sgRNA knockout: sgHSF2, 10000 nM	69
sgRNA knockout: sgKEAP1, 10 nM	92.2
sgRNA knockout: sgKEAP1, 100 nM	115
sgRNA knockout: sgKEAP1, 1000 nM	108
sgRNA knockout: sgKEAP1, 10000 nM	86.5
sgRNA knockout: sgNFE2L2, 10 nM	98.26
sgRNA knockout: sgNFE2L2, 100 nM	107
sgRNA knockout: sgNFE2L2, 1000 nM	108
sgRNA knockout: sgNFE2L2, 10000 nM	83.3
sgRNA knockout: sgSLC35F2, 10 nM	98.1
sgRNA knockout: sgSLC35F2, 100 nM	82.3
sgRNA knockout: sgSLC35F2, 1000 nM	92.7
sgRNA knockout: sgSLC35F2, 10000 nM	80.8
sgRNA knockout: sgXBP1, 10 nM	100
sgRNA knockout: sgXBP1, 100 nM	84.4
sgRNA knockout: sgXBP1, 1000 nM	97
sgRNA knockout: sgXBP1, 10000 nM	92.7

Cc1nc(Nc2ncc(C(=O)Nc3c(C)cccc3Cl)s2)cc(N2CCN(CCO)CC2)n1 [Dasatinib]
Details	relative cell number
sgRNA knockout: sgATF3, 10 nM	108
sgRNA knockout: sgATF3, 100 nM	43.1
sgRNA knockout: sgATF3, 1000 nM	48.5
sgRNA knockout: sgATF3, 10000 nM	20.6
sgRNA knockout: sgATF4, 10 nM	82
sgRNA knockout: sgATF4, 100 nM	53.6
sgRNA knockout: sgATF4, 1000 nM	63
sgRNA knockout: sgATF4, 10000 nM	20.3
sgRNA knockout: sgATF6, 10 nM	86.7
sgRNA knockout: sgATF6, 100 nM	48.2
sgRNA knockout: sgATF6, 1000 nM	51.9
sgRNA knockout: sgATF6, 10000 nM	20.5
sgRNA knockout: sgATG7, 10 nM	102.2
sgRNA knockout: sgATG7, 100 nM	41.5
sgRNA knockout: sgATG7, 1000 nM	54.1
sgRNA knockout: sgATG7, 10000 nM	16.2
sgRNA knockout: sgERN1, 10 nM	92.8
sgRNA knockout: sgERN1, 100 nM	45
sgRNA knockout: sgERN1, 1000 nM	50.6
sgRNA knockout: sgERN1, 10000 nM	22.1
sgRNA knockout: sgHSF1, 10 nM	108
sgRNA knockout: sgHSF1, 100 nM	46.4
sgRNA knockout: sgHSF1, 1000 nM	62.1
sgRNA knockout: sgHSF1, 10000 nM	13.6
sgRNA knockout: sgHSF2, 10 nM	88
sgRNA knockout: sgHSF2, 100 nM	43.4
sgRNA knockout: sgHSF2, 1000 nM	54
sgRNA knockout: sgHSF2, 10000 nM	23
sgRNA knockout: sgKEAP1, 10 nM	87.1
sgRNA knockout: sgKEAP1, 100 nM	39.8
sgRNA knockout: sgKEAP1, 1000 nM	66.1
sgRNA knockout: sgKEAP1, 10000 nM	14.3
sgRNA knockout: sgNFE2L2, 10 nM	99.6
sgRNA knockout: sgNFE2L2, 100 nM	39.7
sgRNA knockout: sgNFE2L2, 1000 nM	51.8
sgRNA knockout: sgNFE2L2, 10000 nM	16.9
sgRNA knockout: sgSLC35F2, 10 nM	95.9
sgRNA knockout: sgSLC35F2, 100 nM	44.1
sgRNA knockout: sgSLC35F2, 1000 nM	41.5
sgRNA knockout: sgSLC35F2, 10000 nM	19.6
sgRNA knockout: sgXBP1, 10 nM	86.92
sgRNA knockout: sgXBP1, 100 nM	36.6
sgRNA knockout: sgXBP1, 1000 nM	53
sgRNA knockout: sgXBP1, 10000 nM	15.3
